In the supplement of paper PMC7666118:
The other results are listed elsewhere or left out.

Sequences of proteins named here, by UniProt entry; tags and fusion partners are left off. A change or cut given only in a name is not applied to a line headed by its entry.
UniProt Q96PC5: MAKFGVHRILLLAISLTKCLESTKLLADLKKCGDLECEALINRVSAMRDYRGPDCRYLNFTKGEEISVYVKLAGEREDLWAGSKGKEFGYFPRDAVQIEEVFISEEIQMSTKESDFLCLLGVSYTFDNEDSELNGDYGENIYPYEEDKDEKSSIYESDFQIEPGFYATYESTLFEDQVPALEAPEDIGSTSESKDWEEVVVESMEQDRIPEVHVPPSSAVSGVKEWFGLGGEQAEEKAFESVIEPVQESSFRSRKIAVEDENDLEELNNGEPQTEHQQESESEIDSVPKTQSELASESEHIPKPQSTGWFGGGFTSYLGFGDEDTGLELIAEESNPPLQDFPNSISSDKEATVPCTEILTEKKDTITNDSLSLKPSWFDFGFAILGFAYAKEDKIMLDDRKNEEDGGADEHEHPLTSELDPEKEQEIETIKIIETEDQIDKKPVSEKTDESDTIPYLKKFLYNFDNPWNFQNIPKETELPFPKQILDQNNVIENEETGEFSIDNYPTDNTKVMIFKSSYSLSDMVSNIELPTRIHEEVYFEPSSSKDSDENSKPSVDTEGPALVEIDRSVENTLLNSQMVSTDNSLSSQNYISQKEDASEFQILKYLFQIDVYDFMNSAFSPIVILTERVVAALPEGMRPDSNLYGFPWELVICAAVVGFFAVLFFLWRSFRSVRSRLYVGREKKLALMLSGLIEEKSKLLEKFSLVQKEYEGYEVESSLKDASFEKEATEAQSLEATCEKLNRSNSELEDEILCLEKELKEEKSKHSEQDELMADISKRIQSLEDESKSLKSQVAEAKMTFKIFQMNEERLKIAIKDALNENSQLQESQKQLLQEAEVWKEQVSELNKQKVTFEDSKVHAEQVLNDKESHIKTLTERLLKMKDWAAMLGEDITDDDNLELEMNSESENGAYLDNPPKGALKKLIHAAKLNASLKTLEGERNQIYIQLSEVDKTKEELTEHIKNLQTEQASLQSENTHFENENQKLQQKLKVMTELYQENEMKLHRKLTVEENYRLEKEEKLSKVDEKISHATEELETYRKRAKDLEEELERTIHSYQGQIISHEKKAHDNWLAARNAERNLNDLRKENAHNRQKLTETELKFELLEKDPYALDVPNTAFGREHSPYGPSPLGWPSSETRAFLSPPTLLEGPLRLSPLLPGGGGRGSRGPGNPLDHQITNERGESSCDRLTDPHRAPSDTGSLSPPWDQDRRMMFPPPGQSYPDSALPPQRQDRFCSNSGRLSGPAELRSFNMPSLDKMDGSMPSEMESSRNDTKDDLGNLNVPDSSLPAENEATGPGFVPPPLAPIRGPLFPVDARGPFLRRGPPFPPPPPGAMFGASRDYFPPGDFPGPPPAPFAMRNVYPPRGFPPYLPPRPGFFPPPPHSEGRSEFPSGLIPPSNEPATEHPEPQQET
UniProt Q92466: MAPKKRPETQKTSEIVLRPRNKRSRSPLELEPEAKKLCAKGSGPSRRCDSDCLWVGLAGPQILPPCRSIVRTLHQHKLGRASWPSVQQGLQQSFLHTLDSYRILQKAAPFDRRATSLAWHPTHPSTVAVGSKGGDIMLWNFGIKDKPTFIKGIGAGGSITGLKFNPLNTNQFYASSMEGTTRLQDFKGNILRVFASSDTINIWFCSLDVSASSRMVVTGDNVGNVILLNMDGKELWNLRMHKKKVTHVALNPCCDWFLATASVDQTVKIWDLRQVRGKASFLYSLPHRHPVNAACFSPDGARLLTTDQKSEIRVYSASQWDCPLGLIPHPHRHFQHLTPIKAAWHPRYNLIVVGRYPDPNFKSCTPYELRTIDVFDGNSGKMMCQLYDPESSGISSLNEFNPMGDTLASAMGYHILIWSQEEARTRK
UniProt P07108: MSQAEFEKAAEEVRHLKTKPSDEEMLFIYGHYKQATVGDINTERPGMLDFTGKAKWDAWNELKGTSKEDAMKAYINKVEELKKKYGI
UniProt P30046: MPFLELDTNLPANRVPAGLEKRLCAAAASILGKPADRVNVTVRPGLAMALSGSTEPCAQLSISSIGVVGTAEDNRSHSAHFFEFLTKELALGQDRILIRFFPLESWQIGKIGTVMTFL
UniProt Q7L5N1: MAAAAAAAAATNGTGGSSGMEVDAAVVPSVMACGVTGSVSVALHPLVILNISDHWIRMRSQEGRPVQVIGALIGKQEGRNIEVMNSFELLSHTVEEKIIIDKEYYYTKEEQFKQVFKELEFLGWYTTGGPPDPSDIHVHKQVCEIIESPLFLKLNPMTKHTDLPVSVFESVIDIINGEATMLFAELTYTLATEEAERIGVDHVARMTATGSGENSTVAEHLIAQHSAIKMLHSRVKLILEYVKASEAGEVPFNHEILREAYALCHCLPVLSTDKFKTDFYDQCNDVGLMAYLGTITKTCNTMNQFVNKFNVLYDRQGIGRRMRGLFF
UniProt O00148, whole entry: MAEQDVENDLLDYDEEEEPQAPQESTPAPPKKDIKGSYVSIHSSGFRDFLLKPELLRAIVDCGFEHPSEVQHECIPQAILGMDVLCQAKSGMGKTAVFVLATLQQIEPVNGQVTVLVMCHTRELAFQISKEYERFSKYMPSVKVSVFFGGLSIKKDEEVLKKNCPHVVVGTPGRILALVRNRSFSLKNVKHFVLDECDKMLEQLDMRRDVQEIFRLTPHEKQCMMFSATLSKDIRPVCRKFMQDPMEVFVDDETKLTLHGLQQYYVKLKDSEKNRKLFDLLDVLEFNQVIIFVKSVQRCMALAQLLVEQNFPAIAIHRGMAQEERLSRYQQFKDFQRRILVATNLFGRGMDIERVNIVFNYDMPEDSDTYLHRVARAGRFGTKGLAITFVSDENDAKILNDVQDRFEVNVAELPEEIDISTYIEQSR
UniProt Q10570: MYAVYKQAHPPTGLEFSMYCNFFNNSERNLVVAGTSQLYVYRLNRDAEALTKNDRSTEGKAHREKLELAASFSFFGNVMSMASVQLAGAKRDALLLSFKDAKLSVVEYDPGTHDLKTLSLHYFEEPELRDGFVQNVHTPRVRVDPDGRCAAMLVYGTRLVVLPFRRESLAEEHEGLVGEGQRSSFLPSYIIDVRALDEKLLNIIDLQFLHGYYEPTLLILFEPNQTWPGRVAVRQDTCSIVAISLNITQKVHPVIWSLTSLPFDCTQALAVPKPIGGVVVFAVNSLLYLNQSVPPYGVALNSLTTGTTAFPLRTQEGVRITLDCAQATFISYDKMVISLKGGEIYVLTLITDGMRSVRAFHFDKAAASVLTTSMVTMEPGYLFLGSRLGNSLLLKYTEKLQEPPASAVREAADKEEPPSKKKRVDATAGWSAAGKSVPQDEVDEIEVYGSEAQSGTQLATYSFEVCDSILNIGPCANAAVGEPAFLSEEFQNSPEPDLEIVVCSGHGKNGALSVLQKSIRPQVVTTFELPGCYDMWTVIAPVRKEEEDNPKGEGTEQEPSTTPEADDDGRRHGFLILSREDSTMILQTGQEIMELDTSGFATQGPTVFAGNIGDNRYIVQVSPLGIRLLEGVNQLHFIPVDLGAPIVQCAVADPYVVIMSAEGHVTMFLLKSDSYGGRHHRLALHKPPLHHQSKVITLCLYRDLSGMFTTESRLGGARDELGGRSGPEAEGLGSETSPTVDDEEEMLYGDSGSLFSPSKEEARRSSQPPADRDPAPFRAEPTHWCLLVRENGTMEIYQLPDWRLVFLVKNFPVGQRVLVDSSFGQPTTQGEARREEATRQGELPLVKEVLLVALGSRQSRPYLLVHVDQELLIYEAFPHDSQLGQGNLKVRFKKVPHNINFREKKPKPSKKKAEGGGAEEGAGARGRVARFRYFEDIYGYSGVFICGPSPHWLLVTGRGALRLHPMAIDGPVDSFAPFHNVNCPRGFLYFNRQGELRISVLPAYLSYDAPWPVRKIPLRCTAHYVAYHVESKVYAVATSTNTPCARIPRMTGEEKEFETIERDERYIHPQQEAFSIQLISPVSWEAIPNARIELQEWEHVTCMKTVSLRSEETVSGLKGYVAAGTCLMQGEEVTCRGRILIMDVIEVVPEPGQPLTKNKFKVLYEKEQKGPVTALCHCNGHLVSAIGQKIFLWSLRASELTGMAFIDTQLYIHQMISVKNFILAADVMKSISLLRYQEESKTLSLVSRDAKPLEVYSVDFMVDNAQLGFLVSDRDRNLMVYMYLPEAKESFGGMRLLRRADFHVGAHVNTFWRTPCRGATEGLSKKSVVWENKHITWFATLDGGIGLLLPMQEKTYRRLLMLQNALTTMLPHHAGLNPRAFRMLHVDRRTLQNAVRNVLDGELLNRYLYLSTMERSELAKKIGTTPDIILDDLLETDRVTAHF
UniProt O95319: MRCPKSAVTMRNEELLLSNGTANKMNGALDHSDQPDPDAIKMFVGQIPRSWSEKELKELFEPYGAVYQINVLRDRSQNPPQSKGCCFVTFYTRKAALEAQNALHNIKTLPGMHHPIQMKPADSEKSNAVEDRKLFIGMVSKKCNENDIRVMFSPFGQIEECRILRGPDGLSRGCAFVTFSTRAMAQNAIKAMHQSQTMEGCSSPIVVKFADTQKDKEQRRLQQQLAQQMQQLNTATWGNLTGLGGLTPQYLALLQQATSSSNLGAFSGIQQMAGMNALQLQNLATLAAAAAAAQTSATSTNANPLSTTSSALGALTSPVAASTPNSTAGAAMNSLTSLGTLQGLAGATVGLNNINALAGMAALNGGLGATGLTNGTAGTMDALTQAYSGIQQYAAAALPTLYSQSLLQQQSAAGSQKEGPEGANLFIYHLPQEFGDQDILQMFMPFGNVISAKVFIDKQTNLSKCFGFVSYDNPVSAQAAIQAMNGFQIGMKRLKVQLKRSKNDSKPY
UniProt Q8WYQ5: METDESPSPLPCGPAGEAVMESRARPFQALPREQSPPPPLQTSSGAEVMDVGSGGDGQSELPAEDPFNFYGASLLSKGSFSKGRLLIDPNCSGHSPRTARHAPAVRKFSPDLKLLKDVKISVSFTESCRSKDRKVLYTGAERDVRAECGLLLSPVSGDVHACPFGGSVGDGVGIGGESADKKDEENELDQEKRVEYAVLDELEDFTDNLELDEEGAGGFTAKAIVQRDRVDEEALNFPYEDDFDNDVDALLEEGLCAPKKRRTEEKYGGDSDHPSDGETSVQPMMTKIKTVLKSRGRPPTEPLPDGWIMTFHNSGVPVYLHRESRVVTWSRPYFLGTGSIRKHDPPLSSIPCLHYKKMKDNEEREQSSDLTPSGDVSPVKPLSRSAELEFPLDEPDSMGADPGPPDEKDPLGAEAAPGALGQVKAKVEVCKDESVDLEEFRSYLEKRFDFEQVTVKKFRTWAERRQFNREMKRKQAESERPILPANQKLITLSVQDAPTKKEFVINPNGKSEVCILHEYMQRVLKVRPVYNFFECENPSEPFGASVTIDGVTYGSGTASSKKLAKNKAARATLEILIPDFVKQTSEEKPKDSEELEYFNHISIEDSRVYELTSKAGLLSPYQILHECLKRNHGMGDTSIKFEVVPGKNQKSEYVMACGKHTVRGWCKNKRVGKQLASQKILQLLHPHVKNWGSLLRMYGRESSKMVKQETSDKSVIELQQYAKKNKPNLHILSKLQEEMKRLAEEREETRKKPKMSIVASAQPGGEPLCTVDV
UniProt P42126: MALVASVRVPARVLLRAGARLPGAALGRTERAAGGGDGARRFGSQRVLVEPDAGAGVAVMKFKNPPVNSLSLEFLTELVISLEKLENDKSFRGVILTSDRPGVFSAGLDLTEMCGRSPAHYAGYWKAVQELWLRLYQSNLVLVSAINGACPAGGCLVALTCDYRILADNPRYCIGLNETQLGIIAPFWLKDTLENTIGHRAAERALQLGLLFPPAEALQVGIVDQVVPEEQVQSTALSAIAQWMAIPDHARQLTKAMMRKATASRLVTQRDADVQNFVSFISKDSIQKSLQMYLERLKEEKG
UniProt Q13618, whole entry: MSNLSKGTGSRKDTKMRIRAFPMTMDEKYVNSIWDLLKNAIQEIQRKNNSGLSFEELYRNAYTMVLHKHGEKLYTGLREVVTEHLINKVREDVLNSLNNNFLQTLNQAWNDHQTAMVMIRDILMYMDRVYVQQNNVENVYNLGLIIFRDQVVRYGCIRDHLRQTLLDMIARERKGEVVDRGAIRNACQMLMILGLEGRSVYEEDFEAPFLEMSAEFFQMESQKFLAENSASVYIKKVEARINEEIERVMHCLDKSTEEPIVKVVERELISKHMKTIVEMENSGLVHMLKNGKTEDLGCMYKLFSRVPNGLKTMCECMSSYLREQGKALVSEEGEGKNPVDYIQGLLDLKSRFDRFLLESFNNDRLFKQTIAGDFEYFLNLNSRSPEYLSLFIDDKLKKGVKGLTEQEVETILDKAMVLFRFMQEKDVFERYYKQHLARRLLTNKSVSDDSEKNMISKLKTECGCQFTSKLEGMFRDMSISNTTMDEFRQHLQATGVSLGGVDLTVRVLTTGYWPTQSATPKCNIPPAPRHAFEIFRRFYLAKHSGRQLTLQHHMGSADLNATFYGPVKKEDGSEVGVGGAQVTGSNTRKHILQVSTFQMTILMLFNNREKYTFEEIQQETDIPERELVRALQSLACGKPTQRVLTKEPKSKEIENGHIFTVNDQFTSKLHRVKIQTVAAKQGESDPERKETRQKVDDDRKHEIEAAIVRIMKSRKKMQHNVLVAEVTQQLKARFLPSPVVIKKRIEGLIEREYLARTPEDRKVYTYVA

compound: COc1ccc(Cn2ccc3ccc(C(=O)NO)cc32)cc1; experiment: dose-dependent thermal stabilisation call (2D-TPP, DLPTP, 10% FDR) (binary (1 = stabilised)); higher = stabilised by the compound; conditions: system: HL-60 intact cells; concentration range 0.04-10 µM

Target	dose-dependent thermal stabilisation call
DDX55 (UniProt Q8NHQ9)	inactive: 0
COX18 (UniProt Q8N8Q8)	inactive: 0
CTAGE5 (UniProt Q96PC5)	inactive: 0
DDB2 (UniProt Q92466)	inactive: 0
COX19 (UniProt Q49B96)	inactive: 0
DCTN5 (UniProt Q9BTE1)	inactive: 0
DBI (UniProt P07108)	inactive: 0
DGUOK (UniProt Q16854)	inactive: 0
DDI2 (UniProt Q5TDH0)	inactive: 0
DDT (UniProt P30046)	inactive: 0
CTSB (UniProt P07858)	inactive: 0
DHODH (UniProt Q02127)	inactive: 0
CRNKL1 (UniProt Q9BZJ0)	inactive: 0
CTBP1 (UniProt Q13363)	inactive: 0
COPS6 (UniProt Q7L5N1)	inactive: 0
DDX20 (UniProt Q9UHI6)	inactive: 0
DDX24 (UniProt Q9GZR7)	inactive: 0
DDX39 (UniProt O00148)	inactive: 0
DEPDC5 (UniProt O75140)	inactive: 0

Target	dose-dependent thermal stabilisation call
CPSF1 (UniProt Q10570)	inactive: 0
CPSF3L (UniProt Q5TA45)	inactive: 0
CUGBP2 (UniProt O95319)	inactive: 0
CYBRD1 (UniProt Q53TN4)	inactive: 0
DGCR8 (UniProt Q8WYQ5)	inactive: 0
CRKRS (UniProt Q9NYV4)	inactive: 0
COQ5 (UniProt Q5HYK3)	inactive: 0
DDX26B (UniProt Q5JSJ4)	inactive: 0
DCI (UniProt P42126)	inactive: 0
CWC22 (UniProt Q9HCG8)	inactive: 0
CSE1L (UniProt P55060)	inactive: 0
CUX1	inactive: 0
DHX34 (UniProt Q14147)	inactive: 0
DDHD1 (UniProt Q8NEL9)	inactive: 0
CRY1 (UniProt Q16526)	inactive: 0
DGKA (UniProt P23743)	inactive: 0
DHRS9 (UniProt Q9BPW9)	inactive: 0
CUL3 (UniProt Q13618)	inactive: 0
CUL9 (UniProt Q8IWT3)	inactive: 0

Look-ups from above.
dose-dependent thermal stabilisation call with CPSF1 (UniProt Q10570) reads inactive: 0
dose-dependent thermal stabilisation call with CUX1 reads inactive: 0
dose-dependent thermal stabilisation call with CUL3 (UniProt Q13618) reads inactive: 0
